For this assay, the target named is MYC2 (Arabidopsis thaliana) (UniProt Q39204). Put plainly: split reporter.

Protein sequences, listed by entry. Tags and fused reporters are not part of them. Lines headed by an entry give the natural chain unless they say otherwise; changes in a name come on top.
UniProt Q39204: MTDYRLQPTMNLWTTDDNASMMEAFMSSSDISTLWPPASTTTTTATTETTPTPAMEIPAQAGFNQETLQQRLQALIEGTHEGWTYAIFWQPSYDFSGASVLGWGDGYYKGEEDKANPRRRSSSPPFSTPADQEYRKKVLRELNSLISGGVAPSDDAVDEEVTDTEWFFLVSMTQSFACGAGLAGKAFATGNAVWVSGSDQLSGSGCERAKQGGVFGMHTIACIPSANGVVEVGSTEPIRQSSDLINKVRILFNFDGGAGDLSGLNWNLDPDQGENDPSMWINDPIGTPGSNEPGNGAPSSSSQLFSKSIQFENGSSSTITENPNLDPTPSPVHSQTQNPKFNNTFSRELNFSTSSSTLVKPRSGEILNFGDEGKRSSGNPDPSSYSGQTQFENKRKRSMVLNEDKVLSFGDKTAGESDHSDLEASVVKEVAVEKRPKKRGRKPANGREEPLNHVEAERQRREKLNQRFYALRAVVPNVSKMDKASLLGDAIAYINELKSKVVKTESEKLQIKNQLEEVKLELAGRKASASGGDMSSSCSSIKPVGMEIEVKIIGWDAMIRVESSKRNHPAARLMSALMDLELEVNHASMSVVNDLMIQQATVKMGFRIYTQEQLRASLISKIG
UniProt Q9MAT6: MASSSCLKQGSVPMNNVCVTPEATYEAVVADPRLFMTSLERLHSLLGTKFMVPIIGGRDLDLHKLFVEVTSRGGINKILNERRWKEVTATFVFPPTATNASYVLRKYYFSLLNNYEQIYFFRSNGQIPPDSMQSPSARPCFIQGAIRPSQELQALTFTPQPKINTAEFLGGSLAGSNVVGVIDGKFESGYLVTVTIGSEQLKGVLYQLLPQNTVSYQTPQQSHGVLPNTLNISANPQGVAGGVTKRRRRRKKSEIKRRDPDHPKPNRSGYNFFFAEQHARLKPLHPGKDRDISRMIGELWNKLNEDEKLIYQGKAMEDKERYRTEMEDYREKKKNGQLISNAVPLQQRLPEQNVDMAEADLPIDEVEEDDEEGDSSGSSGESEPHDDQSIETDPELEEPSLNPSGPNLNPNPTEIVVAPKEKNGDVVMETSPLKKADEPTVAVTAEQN

These results are taken from paper doi:10.1101/2022.11.10.515973.

Results are given in words; binding and its absence hold for the method and conditions named. Binding seen in cells or lysates may run through a third protein. A result given as binding can be weak or reduced; the word gives no strength.

Regarding AtHMGB15 (from UniProt Q9MAT6), the binding entry is “binds”.
